Experimental data: paper PMC3172200
These are yes or no findings as the source states them, for the method shown.

Chains of the proteins cited; added tags and fusions are not shown. Residues count along the entry.
UniProt P61823, residues 27-150: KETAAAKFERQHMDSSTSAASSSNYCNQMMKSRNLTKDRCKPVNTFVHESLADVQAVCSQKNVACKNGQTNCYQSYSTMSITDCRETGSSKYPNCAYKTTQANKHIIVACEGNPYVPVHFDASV

Experiments:
[1] = target: soluble CD28 comprising its extracellular domain fused to IgG1-Fc dimer (CD28-Fc) (human) (UniProt P10747); test: SPR; both purified
[2] = target: egg white lysozyme (14.3 kD) (UniProt P00698); test: far-Western, overlay or dot blot; both purified

Row | Substance | binding [1] | binding [2]
1 | ribonuclease A (from UniProt P61823 27-150) (enzyme) | no binding (tested: four 2-fold increments from 3.12 µM) | 
2 | soluble CD28 comprising its extracellular domain fused to IgG1-Fc dimer (CD28-Fc) (from UniProt P10747 19-152) (Fc fusion) |  | no binding (tested: 0.5 µg/ml CD28-Fc)
